# No constants are given. Whether binding was seen depends on the method and setting. Some binding calls cover weakened binding; strength is not graded here.
# Sequences of proteins named here, by UniProt entry; tags and fusion partners are left off.
# UniProt P25515: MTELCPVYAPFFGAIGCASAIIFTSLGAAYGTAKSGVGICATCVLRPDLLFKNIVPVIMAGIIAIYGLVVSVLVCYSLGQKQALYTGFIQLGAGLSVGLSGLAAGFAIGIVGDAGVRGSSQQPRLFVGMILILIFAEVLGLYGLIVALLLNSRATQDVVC
# Molecular target: yeast V-ATPase subunit c (S. cerevisiae) (UniProt P25515)
# Test: SEC; c-ring released from purified Vo with SLS and LPPG, ammonium sulfate precipitation of a and d, dialysis against DDM buffer, Superdex 200; SDS-PAGE with Coomassie or silver stain
substance,measurement,value
yeast V-ATPase subunit c (from UniProt P25515 1-160),binding,binds

# Reference: publication PMC4838861
